Reference: article PMC6005158
Results are given in words; binding and its absence hold for the method and conditions named. Binding seen in cells or lysates may run through a third protein. Some binding calls cover weakened binding; strength is not graded here. Tags and fused reporters may be left off the sequences shown.

The chains behind the UniProt entries cited, without tags or fusion partners. Where a name states a change or a piece, a line headed by the entry shows the natural chain unless it says otherwise. A line that says so, or that is headed by a name, gives the form on record, which may keep a tag or linker.
DrDDX41-(ΔC + ΔHELICc) (1–411 amino acids, lacking C-terminal region and HELICc domain), Flag-tagged (A0AC58H8X8, form named): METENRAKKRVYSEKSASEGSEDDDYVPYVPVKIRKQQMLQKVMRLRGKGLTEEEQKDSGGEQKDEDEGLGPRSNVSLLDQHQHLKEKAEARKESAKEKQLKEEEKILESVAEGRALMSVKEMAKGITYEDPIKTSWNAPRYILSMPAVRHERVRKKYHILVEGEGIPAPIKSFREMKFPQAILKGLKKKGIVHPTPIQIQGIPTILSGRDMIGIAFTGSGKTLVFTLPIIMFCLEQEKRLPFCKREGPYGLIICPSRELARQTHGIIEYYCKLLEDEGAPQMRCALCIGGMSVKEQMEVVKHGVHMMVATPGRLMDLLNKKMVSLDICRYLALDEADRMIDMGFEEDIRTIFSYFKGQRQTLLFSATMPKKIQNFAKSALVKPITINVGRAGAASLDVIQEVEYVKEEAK
DrDDX41-ΔC (1–558 amino acids, lacking C-terminal region), Flag-tagged (A0AC58H8X8, form named): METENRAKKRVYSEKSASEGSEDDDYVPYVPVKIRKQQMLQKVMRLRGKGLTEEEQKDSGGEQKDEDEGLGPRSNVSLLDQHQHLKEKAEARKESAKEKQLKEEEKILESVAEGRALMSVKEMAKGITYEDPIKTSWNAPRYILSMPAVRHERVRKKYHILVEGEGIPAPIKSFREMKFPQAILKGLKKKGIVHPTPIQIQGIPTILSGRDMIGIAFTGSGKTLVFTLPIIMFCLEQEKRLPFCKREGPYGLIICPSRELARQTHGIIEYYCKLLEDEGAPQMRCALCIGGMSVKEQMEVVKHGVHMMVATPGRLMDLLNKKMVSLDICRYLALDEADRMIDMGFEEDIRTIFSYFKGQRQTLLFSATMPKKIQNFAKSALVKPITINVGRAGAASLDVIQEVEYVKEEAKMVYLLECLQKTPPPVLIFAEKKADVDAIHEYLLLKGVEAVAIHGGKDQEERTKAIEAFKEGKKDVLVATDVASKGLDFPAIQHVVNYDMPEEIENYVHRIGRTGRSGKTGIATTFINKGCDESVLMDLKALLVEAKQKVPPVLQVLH
DrDDX41-ΔN (177–613 amino acids, lacking N-terminal region), Flag-tagged (A0AC58H8X8, form named): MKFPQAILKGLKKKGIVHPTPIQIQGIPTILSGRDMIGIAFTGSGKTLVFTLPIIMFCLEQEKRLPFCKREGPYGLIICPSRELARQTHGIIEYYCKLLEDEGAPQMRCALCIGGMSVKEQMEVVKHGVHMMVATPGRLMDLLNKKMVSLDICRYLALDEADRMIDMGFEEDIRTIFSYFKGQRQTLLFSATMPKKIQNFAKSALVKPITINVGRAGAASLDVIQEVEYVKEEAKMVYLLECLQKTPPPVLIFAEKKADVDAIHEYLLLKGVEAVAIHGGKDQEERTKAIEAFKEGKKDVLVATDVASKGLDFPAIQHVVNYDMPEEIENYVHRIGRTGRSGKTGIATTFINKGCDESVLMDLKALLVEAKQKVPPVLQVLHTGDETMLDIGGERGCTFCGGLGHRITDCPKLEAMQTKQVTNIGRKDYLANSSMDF
DrDDX41-(ΔN + ΔDEADc) (412–613 amino acids, lacking N-terminal region and DEADc domain), Flag-tagged (A0AC58H8X8, form named): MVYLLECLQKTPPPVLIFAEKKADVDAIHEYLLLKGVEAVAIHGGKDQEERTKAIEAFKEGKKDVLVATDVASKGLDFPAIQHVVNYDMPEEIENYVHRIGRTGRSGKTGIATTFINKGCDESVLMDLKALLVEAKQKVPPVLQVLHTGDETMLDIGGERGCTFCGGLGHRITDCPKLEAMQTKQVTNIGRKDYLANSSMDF

These substances were tested against T1, Danio rerio STING (DrSTING), Myc-tagged (zebrafish (Danio rerio)) (UniProt E7F4N7) (assay: co-IP; HEK293T co-transfected with Flag-DrDDX41 or its mutants and Myc-DrSTING (1:1) for 24 h, with or without poly(dA:dT) (1 µg/mL, 6 h); lysis in 20 mM Tris-HCl pH 7.5, 150 mM NaCl, 1 mM EDTA, 1% Triton X-100; lysates immunoprecipitated with anti-Myc mAb and protein A-agarose, blotted with anti-Flag and anti-Myc).
T1 sequence: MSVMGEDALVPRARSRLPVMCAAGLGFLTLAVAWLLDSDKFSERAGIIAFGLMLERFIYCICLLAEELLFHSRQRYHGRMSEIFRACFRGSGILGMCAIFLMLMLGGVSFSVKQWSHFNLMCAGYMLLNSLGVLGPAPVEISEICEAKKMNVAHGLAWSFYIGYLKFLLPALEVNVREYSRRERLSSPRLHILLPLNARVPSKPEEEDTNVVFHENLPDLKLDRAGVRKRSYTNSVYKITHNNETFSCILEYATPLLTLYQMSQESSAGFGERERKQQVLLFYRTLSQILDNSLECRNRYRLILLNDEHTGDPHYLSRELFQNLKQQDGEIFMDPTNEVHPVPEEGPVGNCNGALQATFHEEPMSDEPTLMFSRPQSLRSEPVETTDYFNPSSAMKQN
For “DrDDX41-(ΔC + ΔHELICc) (1–411 amino acids, lacking C-terminal region and HELICc domain), Flag-tagged (from UniProt A0AC58H8X8 1-411) (domain or fragment)”, the binding was “binds”.
For “DrDDX41-ΔC (1–558 amino acids, lacking C-terminal region), Flag-tagged (from UniProt A0AC58H8X8 1-558) (domain or fragment)”, the binding was “binds”.
“DrDDX41-ΔN (177–613 amino acids, lacking N-terminal region), Flag-tagged (from UniProt A0AC58H8X8 177-613) (domain or fragment)” was tested, and the binding was “binds”.
In the case of “DrDDX41-(ΔN + ΔDEADc) (412–613 amino acids, lacking N-terminal region and DEADc domain), Flag-tagged (from UniProt A0AC58H8X8 412-613) (domain or fragment)”, the binding is reported as “no binding”.
